# Laboratory results as given in the supplement of paper PMC4635364.
# Where a name gives a salt, the structure may show the parent alone. The list shows a part of the results. Single values are uncertain here, since repeats match poorly.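 ReNCell VM, a human fetal ventral-midbrain neural progenitor line, was differentiated without mitogens. Blinded raters scored images stained for doublecortin (early neurons) or tyrosine hydroxylase (dopaminergic neurons) against untreated wells (0 = no change). Scores were averaged across repeats and both raters, and compounds averaging 2 or more were selected as hits for retesting.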 Where a SMILES comes first, the peptide text is derived from it.
# Experiments:
# ReNCell VM [1] = test: neuronal differentiation score (DCX+ cell fraction vs untreated, manual image score) (score (-3 to 3)); higher = more neuronal differentiation; details: 2 uM, 2 weeks
# ReNCell VM [2] = test: dopaminergic neuron differentiation score (TH+ cell fraction vs untreated, manual image score) (score (0 to 3)); higher = more TH+ dopaminergic neuron differentiation; details: 2 uM, 4 weeks, BDNF 10 ng/ml + GDNF 10 ng/ml
smiles,measurement,setting,value
O=C(O)c1cc(-c2ccc(F)cc2F)ccc1O,neuronal differentiation score,ReNCell VM [1]; library: Spectrum,inactive: 0
same,dopaminergic neuron differentiation score,ReNCell VM [2]; library: Spectrum,inactive: 0
[O-][S+](c1ccccc1)c1ccc2nnnn2n1 (stereo not given),neuronal differentiation score,ReNCell VM [1]; library: Tocriscreen,inactive: 0
same,dopaminergic neuron differentiation score,ReNCell VM [2]; library: Tocriscreen,inactive: 0
COC(=O)C[C@H]1C(C)(C)[C@@H](O)[C@@H]2CC3=C4C=C(OC)O[C@@H](c5ccoc5)[C@]4(C)CCC3[C@@]1(C)C2=O (stereo partly drawn) [3-DEOXO-3beta-HYDROXYMEXICANOLIDE 16-ENOL ETHER],neuronal differentiation score,ReNCell VM [1]; library: Spectrum,inactive: 0
same,dopaminergic neuron differentiation score,ReNCell VM [2]; library: Spectrum,inactive: 0
CC[C@H](C)C(=O)O[C@H]1C[C@@H](C)C=C2C=C[C@H](C)[C@H](CC[C@@H]3C[C@@H](O)CC(=O)O3)[C@H]21,neuronal differentiation score,ReNCell VM [1]; library: Spectrum,inactive: 0
same,dopaminergic neuron differentiation score,ReNCell VM [2]; library: Spectrum,inactive: 0
CCCc1nn(C)c2c(=O)[nH]c(-c3cc(S(=O)(=O)N4CCN(C)CC4)ccc3OCC)nc12,neuronal differentiation score,ReNCell VM [1]; library: Spectrum,inactive: 1
same,dopaminergic neuron differentiation score,ReNCell VM [2]; library: Spectrum,inactive: 0
Nc1nc(N)c2nc(CNc3ccc(C(=O)N[C@@H](CCC(=O)O)C(=O)O)cc3)cnc2n1 [Aminopterin],neuronal differentiation score,ReNCell VM [1]; library: LOPAC,inactive: 0
same,dopaminergic neuron differentiation score,ReNCell VM [2]; library: LOPAC,inactive: 0
O=C(O)CNC(=O)C(CS)Cc1ccccc1 (stereo not given) [Thiorphan],neuronal differentiation score,ReNCell VM [1]; library: Prestwick,inactive: 0
same,dopaminergic neuron differentiation score,ReNCell VM [2]; library: Prestwick,inactive: 0
"OC1COC2C(O)COC12 (stereo not given) [1,4:3,6-dianhydromannitol]",neuronal differentiation score,ReNCell VM [1]; library: Natural,inactive: 0
same,dopaminergic neuron differentiation score,ReNCell VM [2]; library: Natural,inactive: 0
CCN(CC)CC#CCOC(=O)C(O)(c1ccccc1)C1CCCCC1 (stereo not given),neuronal differentiation score,ReNCell VM [1]; library: Spectrum,inactive: 0
same,dopaminergic neuron differentiation score,ReNCell VM [2]; library: Spectrum,inactive: 0
COc1cc(C(=O)OCCCN2CCCN(CCCOC(=O)c3cc(OC)c(OC)c(OC)c3)CC2)cc(OC)c1OC [Dilazep hydrochloride],neuronal differentiation score,ReNCell VM [1]; library: LOPAC,inactive: 1
same,dopaminergic neuron differentiation score,ReNCell VM [2]; library: LOPAC,inactive: 0
CN1[C@@H]2CC[C@H]1C[C@@H](OC(=O)c1c[nH]c3ccccc13)C2 [Tropisetron HCl],neuronal differentiation score,ReNCell VM [1]; library: Prestwick,inactive: 0
same,dopaminergic neuron differentiation score,ReNCell VM [2]; library: Prestwick,inactive: 0
C#CC(N)CCC(=O)O (stereo not given) [gamma-Acetylinic GABA],neuronal differentiation score,ReNCell VM [1]; library: LOPAC,inactive: 0
same,dopaminergic neuron differentiation score,ReNCell VM [2]; library: LOPAC,inactive: 0
CCC(NC(C)C)C(O)c1ccc(O)c2[nH]c(=O)ccc12 (stereo not given) [Procaterol hydrochloride],neuronal differentiation score,ReNCell VM [1]; library: Tocriscreen,inactive: 0
same,dopaminergic neuron differentiation score,ReNCell VM [2]; library: Tocriscreen,inactive: 0
Cc1cc(N)c2ccccc2[n+]1CCCCCCCCCC[n+]1c(C)cc(N)c2ccccc21 [Dequalinium chloride hydrate],neuronal differentiation score,ReNCell VM [1]; library: LOPAC,inactive: 0
same,dopaminergic neuron differentiation score,ReNCell VM [2]; library: LOPAC,inactive: 0
CCCN(CCC)C(=O)C(CCC(=O)O)NC(=O)c1ccccc1 (stereo not given),neuronal differentiation score,ReNCell VM [1]; library: Spectrum,inactive: 0
same,dopaminergic neuron differentiation score,ReNCell VM [2]; library: Spectrum,inactive: 0
CCN(CC)CCNC(=O)c1ccc(N)cc1,neuronal differentiation score,ReNCell VM [1]; library: Spectrum,inactive: 0
same,dopaminergic neuron differentiation score,ReNCell VM [2]; library: Spectrum,inactive: 0
CCOC(=O)c1ccc(N)cc1 [Benzocaine],neuronal differentiation score,ReNCell VM [1]; library: Prestwick,inactive: 0
same,dopaminergic neuron differentiation score,ReNCell VM [2]; library: Prestwick,inactive: 0
"Cc1cccc(C(=O)NCN2CCN(c3ccccc3C#N)CC2)c1 [PD 168,077 maleate]",neuronal differentiation score,ReNCell VM [1]; library: LOPAC,inactive: 0
same,dopaminergic neuron differentiation score,ReNCell VM [2]; library: LOPAC,inactive: 1
CCCCCCCC/C=C\CCCCCCCC(=O)NCCO [Oleylethanolamide],neuronal differentiation score,ReNCell VM [1]; library: Tocriscreen,inactive: 0
same,dopaminergic neuron differentiation score,ReNCell VM [2]; library: Tocriscreen,inactive: 0
COc1cc2nc(N3CCN(C(=O)c4ccco4)CC3)nc(N)c2cc1OC,neuronal differentiation score,ReNCell VM [1]; library: Spectrum,inactive: 0
same,dopaminergic neuron differentiation score,ReNCell VM [2]; library: Spectrum,inactive: 0
CC#C[C@]1(O)CC[C@H]2[C@@H]3CCC4=CC(=O)CCC4=C3[C@@H](c3ccc(N(C)C)cc3)C[C@@]21C,neuronal differentiation score,ReNCell VM [1]; library: Spectrum,inactive: -1
same,dopaminergic neuron differentiation score,ReNCell VM [2]; library: Spectrum,inactive: 0
CSc1ccc2c(c1)N(CCC1CCCCN1C)c1ccccc1S2 (stereo not given),neuronal differentiation score,ReNCell VM [1]; library: Spectrum,inactive: 0
same,dopaminergic neuron differentiation score,ReNCell VM [2]; library: Spectrum,inactive: 0
CC1(C)CC23C(=O)CCC(O)C2(C)CCC13 (stereo not given),neuronal differentiation score,ReNCell VM [1]; library: Spectrum,inactive: 0
same,dopaminergic neuron differentiation score,ReNCell VM [2]; library: Spectrum,inactive: 0
O=C(O)[C@H]1O[C@@H](Oc2cc3oc(-c4ccccc4)cc(=O)c3c(O)c2O)[C@H](O)[C@@H](O)[C@@H]1O,neuronal differentiation score,ReNCell VM [1]; library: Spectrum,inactive: 0
same,dopaminergic neuron differentiation score,ReNCell VM [2]; library: Spectrum,inactive: 0
CC(C(=O)O)c1ccc2c(c1)Cc1cccnc1O2 (stereo not given),neuronal differentiation score,ReNCell VM [1]; library: Spectrum,inactive: 0
same,dopaminergic neuron differentiation score,ReNCell VM [2]; library: Spectrum,active: 3
CC1(C)O[C@@H]2C[C@H]3[C@@H]4C[C@H](F)C5=CC(=O)C=C[C@]5(C)[C@H]4[C@@H](O)C[C@]3(C)[C@]2(C(=O)CO)O1,neuronal differentiation score,ReNCell VM [1]; library: Spectrum,inactive: 0
same,dopaminergic neuron differentiation score,ReNCell VM [2]; library: Spectrum,inactive: 0
CC(C)C[C@H](N)C(=O)N[C@@H](C)C(=O)O (H-Leu-Ala-OH),neuronal differentiation score,ReNCell VM [1]; library: Spectrum,inactive: 0
same,dopaminergic neuron differentiation score,ReNCell VM [2]; library: Spectrum,inactive: 0
CCOC(=O)NNc1nncc2ccccc12,neuronal differentiation score,ReNCell VM [1]; library: Spectrum,inactive: 0
same,dopaminergic neuron differentiation score,ReNCell VM [2]; library: Spectrum,inactive: 0
C=C1C(=O)O[C@@H]2C[C@@]3(C)CCC[C@H](C)C3=C[C@H]12,neuronal differentiation score,ReNCell VM [1]; library: Spectrum,inactive: 0
same,dopaminergic neuron differentiation score,ReNCell VM [2]; library: Spectrum,inactive: 0
CC12CC3CC(C)(C1)CC(N)(C3)C2 [Memantine Hydrochloride],neuronal differentiation score,ReNCell VM [1]; library: Prestwick,inactive: 0
same,dopaminergic neuron differentiation score,ReNCell VM [2]; library: Prestwick,inactive: 0
Nc1ccc(C(=O)Oc2ccccc2)c(O)c1,neuronal differentiation score,ReNCell VM [1]; library: Spectrum,inactive: 0
same,dopaminergic neuron differentiation score,ReNCell VM [2]; library: Spectrum,inactive: 0
NCCOB(c1ccccc1)c1ccccc1,neuronal differentiation score,ReNCell VM [1]; library: Spectrum,inactive: 0
same,dopaminergic neuron differentiation score,ReNCell VM [2]; library: Spectrum,inactive: 0
O=S(=O)(O)c1cc(O)ccc1O [Ethamsylate],neuronal differentiation score,ReNCell VM [1]; library: Prestwick,inactive: 0
same,dopaminergic neuron differentiation score,ReNCell VM [2]; library: Prestwick,inactive: 0
"Cn1c(=O)[nH]c2ncn(C)c2c1=O [1,7-Dimethylxanthine]",neuronal differentiation score,ReNCell VM [1]; library: LOPAC,inactive: 0
same,dopaminergic neuron differentiation score,ReNCell VM [2]; library: LOPAC,inactive: 0
O=C(/C=C/c1c(C(=O)O)[nH]c2cc(Cl)cc(Cl)c12)Nc1ccccc1 [Gavestinel],neuronal differentiation score,ReNCell VM [1]; library: Tocriscreen,inactive: 0
same,dopaminergic neuron differentiation score,ReNCell VM [2]; library: Tocriscreen,inactive: 0

# Looked up one by one from above (three):
smiles,measurement,setting,value
CCOC(=O)c1ccc(N)cc1 [Benzocaine],dopaminergic neuron differentiation score,ReNCell VM [2]; library: Prestwick,inactive: 0
CSc1ccc2c(c1)N(CCC1CCCCN1C)c1ccccc1S2 (stereo not given),dopaminergic neuron differentiation score,ReNCell VM [2]; library: Spectrum,inactive: 0
CCOC(=O)c1ccc(N)cc1 [Benzocaine],neuronal differentiation score,ReNCell VM [1]; library: Prestwick,inactive: 0
